{"source": "PubChem BioAssay AID504834", "about": "(National Center for Advancing Translational Sciences (NCATS), 2011)", "note": "About 22,000 (6.9%) of roughly 320,000 compounds were called active. This list was built around the results that the source calls inconclusive (neither active nor inactive); the mix of calls is not that of the screen. The call rests on the fitted dose curve; in most records, active means well fitted inhibition curve with a large enough effect; inconclusive means small, poorly fitted or top-dose-only effect, or another doubt; inactive means no such curve, though single readings can be large or run the other way. A potency beside an inconclusive call is a rough fit, not a confirmed value. On the % scale 0 is the no-effect control and ±100 the full control effect; potency means the concentration at half of the fitted maximal effect."}
{"assay": "Primary qHTS for delayed death inhibitors of the malarial parasite plastid, 96 hour incubation", "settings": "P. falciparum luciferase reporter growth; series mostly up to 28.7 µM; activity change, negative = inhibition: at the top concentration", "method_in_brief": "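Cell-based qHTS: luciferase-tagged P. falciparum in erythrocytes (2% hematocrit, 0.05% parasitemia final) incubated with compounds for 96 hours, 37 C, 5% CO2; luciferase detection reagent then added and luminescence measured.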"}
{"smiles": "COc1ccc(N(CC(=O)NCc2cccs2)S(=O)(=O)c2cccc(C)c2)cc1", "Potency": "inconclusive: 5.86 µM [inhibitor, partial curve]"}
{"smiles": "O=C(Nc1ccccc1N1CCCC1)c1ccc(F)c(S(=O)(=O)N2CCOCC2)c1", "Potency": "inconclusive: 10.4 µM [inhibitor, partial curve, poor fit]"}
{"smiles": "Cc1ccc(CN(C)C(=O)CCc2nc3sc4c(c3c(=O)[nH]2)CCCC4)o1", "Potency": "inconclusive: 10.4 µM [inhibitor, single point]"}
{"smiles": "Cc1ccc(CNCCNCCO)s1", "activity change, negative = inhibition": "inactive: 18.6%"}
{"smiles": "Cc1onc(-c2ccccc2Cl)c1C(O)c1ccc(F)cc1", "note": "(configuration not stated)", "Potency": "inconclusive: 18.5 µM [inhibitor, partial curve, poor fit]"}
{"smiles": "O=C1C(=O)c2c(C(=O)c3ccccc3)coc2-c2ccccc21", "Potency": "inconclusive: 13.1 µM [inhibitor, partial curve, poor fit]"}
{"smiles": "O=C(COc1ccccc1)Nc1ccc(N2CCN(C(=O)c3cccs3)CC2)cc1", "activity change, negative = inhibition": "inactive: 9.01%"}
{"smiles": "COc1cc(CCN2C(=O)c3cccc4cccc(c34)C2=O)c(S(=O)(=O)N2CCCCCC2)cc1OC", "Potency": "active: 2.33 µM"}
{"smiles": "COc1ccc(/C=N/NC(=O)c2ccc(N(C)S(=O)(=O)c3ccccc3)cc2)c(OC)c1", "Potency": "inconclusive: 3.29 µM [inhibitor, full curve]"}
{"smiles": "CCOC(=O)N1CCN(C(=O)C2CC(c3cc(OC)ccc3OC)=NO2)CC1", "note": "(configuration not stated)", "Potency": "inconclusive: 0.0093 µM [inhibitor, full curve, poor fit]"}
{"smiles": "Cc1ccc(C)c(NC(=S)NNc2ccc(F)cc2F)c1", "Potency": "inconclusive: 10.4 µM [inhibitor, single point]"}
{"smiles": "COc1ccc(CCNC(=O)CSCc2ccc(Br)cc2)cc1OC", "Potency": "inconclusive: 10.4 µM [inhibitor, single point]"}
{"smiles": "COCCCNc1nc2c(c(=O)[nH]c(=O)n2C)n1CC(O)COc1ccccc1C", "note": "(configuration not stated)", "activity change, negative = inhibition": "inactive: 37.9%"}
{"smiles": "CC(C)CCOC(=O)c1ccc(N(C)C)cc1", "activity change, negative = inhibition": "inactive: 58%"}
{"smiles": "O=C(CC(c1ccccc1)c1ccccc1)Nc1ccc(Cl)cn1", "activity change, negative = inhibition": "inactive: 9.16%"}
{"smiles": "Cc1nc2nc(C)c(CCC(=O)N3CCN(c4ccccc4)CC3)c(C)n2n1", "Potency": "inconclusive: 20.8 µM [inhibitor, partial curve, poor fit]"}
{"smiles": "Cc1cc(C(=O)Nc2ccccc2C(=O)O)ccc1NC(=O)COc1ccccc1Cl", "Potency": "inconclusive: 9.28 µM [inhibitor, single point]"}
{"smiles": "Cc1nc(C)c(C(=O)N2CCCC(C(=O)c3ccc4ccccc4c3)C2)s1", "note": "(configuration not stated)", "Potency": "inconclusive: 6.57 µM [inhibitor, partial curve]"}
{"smiles": "CCN(CC)c1ccc(/C=N/NC(=O)c2ccoc2C)c(O)c1", "Potency": "inconclusive: 6.57 µM [inhibitor, partial curve, poor fit]"}
{"smiles": "COc1ccc(Cl)cc1NC(=O)Nc1cc(C)on1", "Potency": "inconclusive: 10.4 µM [inhibitor, single point]"}
{"smiles": "C[C@H]1CN=C(N(C)C)N1CC1CCCC1", "Potency": "inconclusive: 10.4 µM [inhibitor, single point]"}
{"smiles": "COC(=O)c1ccc(C(=O)OC)c(NC(=O)COC(=O)c2ccc(OC)c(OC)c2OC)c1", "Potency": "inconclusive: 10.4 µM [inhibitor, single point]"}
{"smiles": "Cc1ccc(CCNC(=O)CC(C)CC2=NS(=O)(=O)c3ccccc3N2)cc1", "note": "(configuration not stated)", "Potency": "inconclusive: 0.0041 µM [inhibitor, full curve, poor fit]"}
{"smiles": "Cc1ccc(Cn2nc(C)c(C(=O)NCC(c3cccs3)N3CCOCC3)c2Cl)cc1", "note": "(configuration not stated)", "Potency": "inconclusive: 18.5 µM [inhibitor, single point]"}
{"smiles": "COc1cccc(CN(C)C(=O)c2ccc(N3CCCC3)c([N+](=O)[O-])c2)c1", "Potency": "active: 13.1 µM"}
{"smiles": "CCCC(C(=O)n1nc(C)cc1C)C(NS(=O)(=O)c1ccc(C)cc1)c1ccccc1", "note": "(configuration not stated)", "Potency": "inconclusive: 11.7 µM [inhibitor, single point]"}
{"smiles": "CC(C)N(Cc1ccccc1)C(=O)CN1C(=O)NC2(CCCC2)C1=O", "activity change, negative = inhibition": "inactive: -24.5%"}
{"smiles": "COc1ccccc1-c1c(C(F)(F)F)oc2cc(OCC(=O)Nc3cc(C)ccc3C)ccc2c1=O", "activity change, negative = inhibition": "inactive: -11.7%"}
{"smiles": "O=C(CN1CCN(Cc2ccccc2)CC1)Nc1ccc(F)c(F)c1", "Potency": "inconclusive: 13.1 µM [inhibitor, partial curve, poor fit]"}
{"smiles": "Cc1ccccc1C(=O)NCCCCc1ccccc1", "activity change, negative = inhibition": "inactive: -10.8%"}
{"smiles": "O=c1cc(-c2ccc(O)c(-c3c(O)cc(O)c4c(=O)cc(-c5ccc(O)cc5)oc34)c2)oc2cc(O)cc(O)c12", "Potency": "inconclusive: 18.5 µM [inhibitor, single point]"}
{"smiles": "CCCn1c2c(c(=N)c3c1CCC3)CCCC2", "Potency": "active: 0.117 µM"}
{"smiles": "CCN(CC)CCCNC(=O)c1ccc(S(=O)(=O)Nc2ccc(C)c(C)c2)cc1", "Potency": "inconclusive: 11.7 µM [inhibitor, single point]"}
{"smiles": "O=C(NCC1CCCO1)c1ccccc1NC(=O)c1cccc2ccccc12", "note": "(configuration not stated)", "Potency": "inconclusive: 10.4 µM [inhibitor, partial curve]"}
{"smiles": "CCOc1ccc2nc(N/C(N)=N/C(=S)Nc3ccc(OC)cc3)nc(C)c2c1", "Potency": "inconclusive: 2.08 µM [inhibitor, partial curve, poor fit]"}
{"smiles": "COc1ccc(C)cc1NC(=O)COC(=O)CCC(=O)c1cccs1", "activity change, negative = inhibition": "inactive: -24.2%"}
{"smiles": "O=C(c1ccc(N2CCN(C(=O)c3ccc(F)c(F)c3)CC2)cc1)c1cccc(F)c1", "Potency": "inconclusive: 1.65 µM [inhibitor, full curve, poor fit]"}
{"smiles": "Cc1ccc2nc3c(cc(C#N)c(=O)n3CC3CCCO3)c(=O)n2c1", "note": "(configuration not stated)", "activity change, negative = inhibition": "inactive: 8.44% [at 5.75 µM]"}
{"smiles": "CCc1ccc2[nH]c(C(=O)Nc3ccc(C)c(F)c3)cc2c1", "Potency": "inconclusive: 13.1 µM [inhibitor, single point]"}
{"smiles": "COc1cc(/C=C/c2cc(OC(C)=O)c3ccccc3n2)c(OC(C)=O)c([N+](=O)[O-])c1", "activity change, negative = inhibition": "inactive: 33.2%"}
{"smiles": "CCC(Sc1ncnc2c1c(-c1ccccc1)cn2-c1ccc(OC)cc1)C(=O)OC", "note": "(configuration not stated)", "Potency": "inconclusive: 7.38 µM [inhibitor, single point]"}
{"smiles": "COc1ccc(-c2nnn(CC(=O)N(CC(=O)NC3CCCC3)Cc3ccco3)n2)cc1OC", "Potency": "inconclusive: 2.94 µM [inhibitor, single point]"}
{"smiles": "Cc1ccc(N2C(=O)c3ccccc3C2C(=O)c2ccc(O)cc2O)cc1", "note": "(configuration not stated)", "activity change, negative = inhibition": "inactive: -20%"}
{"smiles": "CCOC(=O)c1ccc2c(c1)[n+](CC)c(C)n2-c1ccccc1", "Potency": "inconclusive: 7.38 µM [inhibitor, partial curve, poor fit]"}
{"smiles": "CC(C)C[C@H]1CN=C(N(C)C)N1CCCCc1ccccc1", "Potency": "inconclusive: 4.15 µM [inhibitor, single point]"}
{"smiles": "CCC(Cc1ccccc1)NC(=O)C1=C(C)C(=O)OC12CCC(C)CC2", "note": "(configuration not stated)", "Potency": "inconclusive: 8.28 µM [inhibitor, partial curve, poor fit]"}
{"smiles": "CCCCc1ccc(N=N/C(C(=O)Nc2ccccc2OC)=C(/C)O)cc1", "activity change, negative = inhibition": "inactive: 0.144%"}
